These results are taken from publication PMC2666748.

These are yes or no findings as the source states them, for the method shown. In cells and extracts the contact can be indirect. Here binding means that the protein was enriched with, or labelled near, the bait; the list need not be complete.

Holding throughout (experiment): affinity purification with mass spectrometry; additional bait fishing experiments with OE2402F, OE2404R and OE2401F as baits fused to a cellulose-binding domain; halobacterial protein complexes, components identified by mass spectrometry; details in Additional file 1
The target in test [1] is T1, OE2404R (bait) (H. salinarum) (UniProt B0R4J4).
T1 sequence: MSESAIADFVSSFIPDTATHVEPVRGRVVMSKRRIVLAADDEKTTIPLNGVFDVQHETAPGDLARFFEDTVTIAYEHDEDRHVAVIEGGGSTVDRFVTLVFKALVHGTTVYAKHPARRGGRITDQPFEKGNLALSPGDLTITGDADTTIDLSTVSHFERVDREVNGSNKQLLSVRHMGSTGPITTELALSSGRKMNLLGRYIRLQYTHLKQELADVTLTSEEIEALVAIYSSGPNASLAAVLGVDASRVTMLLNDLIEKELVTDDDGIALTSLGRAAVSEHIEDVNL

Test [2] deals with T2, OE2402F (bait) (H. salinarum) (UniProt B0R4J3).
T2 sequence: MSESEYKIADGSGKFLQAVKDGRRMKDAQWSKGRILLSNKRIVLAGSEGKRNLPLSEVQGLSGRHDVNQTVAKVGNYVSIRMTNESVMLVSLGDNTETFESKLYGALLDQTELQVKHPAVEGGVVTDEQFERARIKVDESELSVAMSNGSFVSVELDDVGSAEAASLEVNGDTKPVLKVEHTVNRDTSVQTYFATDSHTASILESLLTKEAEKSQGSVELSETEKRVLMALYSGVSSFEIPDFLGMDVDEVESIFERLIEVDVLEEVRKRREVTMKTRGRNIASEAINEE

Test [3] has as its target T3, OE2401F (bait) (H. salinarum) (UniProt B0R4J2).
T3 sequence: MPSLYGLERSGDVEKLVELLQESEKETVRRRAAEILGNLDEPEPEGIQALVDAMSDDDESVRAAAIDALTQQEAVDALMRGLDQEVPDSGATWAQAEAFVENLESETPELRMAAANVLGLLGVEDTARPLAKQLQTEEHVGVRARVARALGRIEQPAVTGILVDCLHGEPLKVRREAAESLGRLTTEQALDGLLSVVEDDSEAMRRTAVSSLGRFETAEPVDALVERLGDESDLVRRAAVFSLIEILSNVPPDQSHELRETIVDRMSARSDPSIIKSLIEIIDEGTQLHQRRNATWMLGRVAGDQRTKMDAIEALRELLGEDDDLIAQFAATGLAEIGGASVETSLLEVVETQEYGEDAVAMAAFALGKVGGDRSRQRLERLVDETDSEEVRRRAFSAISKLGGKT

In the case of FlaCE, the binding entry in test [1] and in test [2] was “binds” in each case.

As to CheD (prey), the binding entry in test [3] is given as “binds”.

Regarding FlaD, the binding entry in test [1] is on record as “binds”.

B1: OE2402F (protein, UniProt B0R4J3 1-290)
chain: T2 sequence
For B1, the binding entry in test [3] is listed as “binds”.
